Test results published in PubChem BioAssay AID1347423 (Functional Genomics Laboratory (NCATS/FGL), 2020).
Screen size: about 52,000 sequences; about 210 (0.4%) were called active.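 How the source made its calls: active means gene whose silencing raises cell survival under the drug, median off-target-corrected z-score across its silencing RNAs 2 or more; inactive means the rest.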 Some of the results follow.

Assay: Resistance to Poly (ADP-Ribose) Polymerase inhibitor: Gene Identification via Genome-wide siRNA Screen
Details: mouse BRCA2 R2336H ES cells, olaparib, CellTiter-Glo viability; stronger effect = higher value
Method in brief: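 Mouse BRCA2 R2336H ES cells were reverse-transfected with siRNA (20 nM final), treated at 48 h with 500 nM olaparib, and read by CellTiter-Glo after 72 h. Scores: MAD-based z per siRNA, median per gene, seed off-target correction.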

Sequence | z-score
CGACAAUCAACCUACCAGCTT against Cd68 | inactive: 0.26
GGAAUGACAAGCUGAAGAUTT against Zfp67 | inactive: -2.51
GCAACAAGCUGAUAGGGACTT against Otof | inactive: -0.387
GGAUUCAUAUGUGAUUGACTT against Flt4 | inactive: 1.2
GCAGGCAUUCUCUCAAAAUTT against 0610011I04Rik | inactive: -0.148
GGAAUUCAUGUUUUCGCUUTT against Slc9a3r2 | inactive: 0.973
CCAGGGAUCUACAUCUACATT against Olfr1367 | inactive: 1.13
CCUCACAGUAUUCGGCCGATT against Adamts2 | inactive: 0.499
GCGGAACCUAUAUAGGAAUTT against Zfp74 | inactive: 1.61
GGAGAAAACAGGAAUUGUGTT against H2-Eb1 | inactive: 1.12
GGCAAAGUUCUCUUCCAUATT against Olfr914 | inactive: 0.698
GCCCAAGAAUGUGCCUUAUTT against Olfr1278 | inactive: -0.961
GGACAAACUGGACUAUUAUTT against Galnt15 | inactive: -1.22
GGAACAAGCAUACAGGUUCTT against Nphp1 | inactive: 1.6
GGUACUAAAUAUAAAUGGCTT against Igsf6 | inactive: 0.593
GGCUAACCACAUUUGCUUCTT against Zic4 | inactive: -0.5
GGCAACAGCAUCCUACUCUTT against Olfr652 | inactive: -1.26
GGUUGAGUGUUUAACUUAGTT against Trappc5 | inactive: -0.104
GCUAUUUGUCCCUUAGCAGTT against Slc22a5 | inactive: 0.408
GCAAGAACCUAGAGUUAUUTT against Zfp105 | inactive: -0.599
CCAAUACGAACAACUUGCATT against Krt1-10 | inactive: 0.786
GCAAUGGGUUGUAAAUUUATT against Fndc3 | inactive: 0.325

Sequence | z-score
GGACAACGUAGCCUUCGUUTT against 3100002P13Rik | inactive: -1.8
GGAGAAGAUUCCAGAAGCCTT against Tcf15 | inactive: 0.123
CCCUCAAGUACGAAAUCAATT against 5830427H10Rik | inactive: 2.33
GGAUUCAGAAGCAGCAACATT against Nr1h2 | inactive: 0.194
GGCUGAUAAAAGUUUCAGATT against C9 | inactive: 0.875
CCGGGAUAACGACCCUAAUTT against Polr2c | inactive: -1.03
GGACCUGGUUAAGAUAUGUTT against Pmch | inactive: 1.37
GGAUGAGAAACCAUUUAAATT against Oas1f | inactive: 1.31
GCAGUUUUUGAGUCACUACTT against AY314008 | inactive: 2.48
GCAGAUCAACUACGGGAAGTT against Slbp | inactive: -1.16
GGGCAGUGCCUAUUUGAACTT against Cyp4f18 | inactive: -1.33
GGAUCACGGUCUACAAUAATT against 1700009J07Rik | inactive: -0.326
GGCUGUGGACUCUGCAUGUTT against Prkwnk4 | inactive: 0.213
CCUUAGUUAGAAAUGUUGATT against Xkh | inactive: 0.357
GCAGUGUCCAGUAAAGAUUTT against Pwwp1 | inactive: -1.23
GGAGCACUUUAAGUUAUACTT against 2310014L17Rik | inactive: -0.644
GCAGAAACCGUAAAAGCCUTT against Lypla1 | inactive: 0.627
GGUUUUACAGAACAUGGUATT against 5730589K01Rik | inactive: -1.74
GGAGGAGAGAUGGUAAUCCTT against Olfr729 | inactive: -1.83
GCGACCAUUUCGUUUUAGUTT against Frat1 | inactive: 0.402
CGAGACUCUAGAUAGACUGTT against Zswim3 | inactive: 0.0084
CCGUUUUGGUCACGUAUCATT against Olfr599 | inactive: -0.848

Nothing new here: entries from further up.
Sequence | z-score
GGAUCACGGUCUACAAUAATT against 1700009J07Rik | inactive: -0.326
GGCUGUGGACUCUGCAUGUTT against Prkwnk4 | inactive: 0.213
CCUUAGUUAGAAAUGUUGATT against Xkh | inactive: 0.357

(continued)

Sequence | z-score
GGAGCUGUCUAUCACCUGGTT against Popdc2 | inactive: 1.48
GGCUCUUUGUUCAGUUUUUTT against Fxyd3 | inactive: 0.0991
GGACAGUCUGCUCAUCGACTT against 2310066E14Rik | inactive: 0.223
GGAAGAAGCACAAUUUGAATT against 15-Sep | inactive: 0.295
GCUUCAGUGGCUACUCUUGTT against H2-M2 | inactive: -0.579
GGUCUUCUACAACUCGGAATT against Sgpp1 | active: -0.0398
GGAAUGAGAUGUUUUGAGUTT against Ostf1 | inactive: -0.741
GGUUUUUUGCUCUAUUUGATT against B430315C20Rik | inactive: 0.144
GCUCUACAGAUGCCACCACTT against Mlycd | inactive: -0.497
CCUGAUGUAACUAUAAACATT against Adam32 | inactive: 0.332
GCAAUAAAUGGGAACUUACTT against Lrpprc | inactive: 0.84
GGUGUGUCUGUGCUUAUUUTT against Olfr780 | inactive: -0.396
CCUAAGAGAUAAGAGCACCTT against 1110013G13Rik | inactive: -0.663
GGGACCUAGGGAGAAAGAGTT against 6330419J24Rik | inactive: -0.511
GCUACAUGGCUAGAAUAGATT against Eif2s2 | inactive: -0.516
CCGACUAAAGUGUUUAAUUTT against Pfkfb1 | inactive: 0.358
GCACUAUGACUACAAGAGUTT against Olfr1457 | inactive: -0.593
GGGAACCUCCUUGUGAACATT against Nlk | inactive: -1.6
GGCGUGAAAAUAGGAGAAUTT against Extl2 | inactive: -1.53
GGCUGAAGAGGUUUUACGATT against D12Ertd553e | inactive: 1.84
CCUCUGCAUCUUGGCACCATT against BC010787 | inactive: -2.22
GCCAAGUGACGAUCAACUATT against 2310051D06Rik | inactive: -0.739
